These are yes or no findings as the source states them, for the method shown. For some of these results: A result given as binding can be weak or reduced; the word gives no strength.
Assays:
[1] = molecular target: T1, human MET ECD (human, UniProt P08581 25-932); assay: ELISA, MET ECD in solid phase
T1 construct: range 1-932; recombinant ECD made by the applicants; the stated range begins at residue 1, so it includes the signal peptide of the entry; also called hMET; hMET ECD

[2] = molecular target: T2, mouse MET ECD (mouse, UniProt P16056 25-931); assay: ELISA, MET ECD in solid phase
T2 construct: range 1-931; recombinant ECD made by the applicants; the stated range begins at residue 1; also called mMET; mMET ECD

[3] = molecular target: llama-human MET chimeric protein CH6; assay: ELISA, protein in solid phase
[4] = molecular target: llama-human MET chimeric protein CH4; assay: ELISA, protein in solid phase
[5] = molecular target: llama-human MET chimeric protein CH7; assay: ELISA, protein in solid phase
[6] = molecular target: llama-human MET chimeric protein CH2; assay: ELISA, protein in solid phase
[7] = molecular target: T1, human MET ECD; assay: ELISA, protein in solid phase
[8] = molecular target: llama-human MET chimeric protein CH3; assay: ELISA, protein in solid phase
[9] = molecular target: llama MET ECD (llama); assay: ELISA, protein in solid phase
[10] = molecular target: llama-human MET chimeric protein CH5; assay: ELISA, protein in solid phase
[11] = molecular target: llama-human MET chimeric protein CH1; assay: ELISA, protein in solid phase

B1: 76G7 chimeric llama-human IgG1 mAb (antibody, V domains shown)
VH: QVQLVESGGNLVQPGGSLRLSCAASGFTFSNYYMSWVRQAPGKGLEWVSDIYSDGSTTWYSDSVKGRFTISRDNAKNTLSLQMNSLKSEDTAVYYCARVKIYPGGYDAWGQGTQVTVSS
VL: QAGLTQPPSVSGSPGKTVTISCAGNSSDVGYGNYVSWYQQFPGMAPKLLIYLVNKRASGITDRFSGSKSGNTASLTISGLQSEDEADYYCASYTGSNNIVFGGGTHLTVL
notes: llama VH on human IgG1 CH1-CH2-CH3, llama VL on human lambda CL
Which results are given for B1?
binding [1]: binds; binding [2]: binds; binding [3]: no binding (tested: 0-20 nM); binding [4]: binds; binding [5]: no binding (tested: 0-20 nM); binding [6]: binds; binding [7]: binds; binding [8]: binds; binding [9]: no binding (tested: 0-20 nM); binding [10]: binds; binding [11]: binds

B2: 72F8 chimeric llama-human IgG1 mAb (antibody, V domains shown)
VH: ELQLVESGGGLVQPGGSLRLSCAASGFTFSNYVMSWVRQAPGKGLEWVSDTNSGGSTSYADSVKGRFTISRDNAKNTLYLQMNSLKPEDTALYYCARSFFYGMNYWGKGTQVTVSS
VL: QSALTQPPSLSASPGSSVRLTCTLSSGNNIGSYDISWYQQKAGSPPRYLLNYYTDSRKHQDSGVPSRFSGSKDASANAGLLLISGLQPEDEADYYCSAYKSGSYRWVFGGGTHVTVL
notes: as for B1
Which results are given for B2?
binding [1]: binds; binding [2]: binds; binding [3]: binds; binding [4]: no binding (tested: 0-20 nM); binding [5]: binds; binding [6]: binds; binding [7]: binds; binding [8]: no binding (tested: 0-20 nM); binding [9]: no binding (tested: 0-20 nM); binding [10]: no binding (tested: 0-20 nM); binding [11]: binds
